# Measurements published in US11366121B2, “Specific GNAI:GIV interaction screening assays, methods and compositions” (The Regents of the University of California, priority 2017, dated 2022).
# Amino acid sequences for entries named in this document (tags omitted).
# UniProt P08754, whole entry: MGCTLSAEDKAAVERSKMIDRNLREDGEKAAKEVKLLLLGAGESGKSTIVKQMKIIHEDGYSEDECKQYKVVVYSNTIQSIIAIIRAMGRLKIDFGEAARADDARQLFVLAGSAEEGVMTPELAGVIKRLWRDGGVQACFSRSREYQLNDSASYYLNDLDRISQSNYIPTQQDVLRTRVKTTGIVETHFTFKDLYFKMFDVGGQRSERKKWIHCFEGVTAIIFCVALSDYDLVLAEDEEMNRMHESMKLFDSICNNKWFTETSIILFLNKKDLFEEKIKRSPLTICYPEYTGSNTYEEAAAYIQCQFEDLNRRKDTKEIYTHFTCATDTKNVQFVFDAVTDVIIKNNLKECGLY
# For at least one compound, name, drawing or mass did not settle the structure.
# Biological target: GIV:Gαi (Homo sapiens, UniProt P08754)
# Assay: GST-pulldown assay confirming hits
# Format: binding
# Conditions: FIG. 11E
# Procedure: A pilot screen of the LOPAC1280 library (collection of known bioactive compounds) was conducted and identified lead compounds with inhibitory activity (FIG. 11A). A virtual ligand screen (VLS) of the same library (LOPAC1280) was conducted using in silico docking methods (FIG. 11B). The results from both screens were compared. […] From the virtual screen 7 ‘hits’ (FIG. 11B) were identified. Importantly, 2 of the virtual screen hits matched the results from the FP assay and a third was validated as a GIV:Gαi inhibitor. Compounds were validated by dose response curves (FIG. 11D). […] None of the other 4 hits predicted by the VLS inhibited binding.
structure (smiles),measurement,value
"O=C(O)C1=CC(=C(c2ccc(O)c(C(=O)O)c2)c2ccc(O)c(C(=O)O)c2)C=CC1=O [ATA, aurintricarboxylic acid]",confirmation as hit by GST-pulldown,true hits
